Results are given in words; binding and its absence hold for the method and conditions named. Some results given as binding are weak or reduced against the parent protein; the word gives no strength.
Target: histidine tagged HMGB1 (High-Mobility-Group-Protein 1) (Homo sapiens (Human)) (UniProt P09429)
Assay: MST

Protein sequences, listed by entry. Tags and fused reporters are not part of them. Lines headed by an entry give the natural chain unless they say otherwise; changes in a name come on top.
UniProt P09429: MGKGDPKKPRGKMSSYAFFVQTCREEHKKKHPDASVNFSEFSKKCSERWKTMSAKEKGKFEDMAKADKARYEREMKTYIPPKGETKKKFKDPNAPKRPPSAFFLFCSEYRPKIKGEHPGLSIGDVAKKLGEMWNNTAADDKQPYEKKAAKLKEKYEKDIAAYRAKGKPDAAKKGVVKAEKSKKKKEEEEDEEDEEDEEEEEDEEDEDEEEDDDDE

binding: binds
Binder: ERWIH (Last five residues of HBP08 (ERWIH)) [Pentapept-2]
